The whole screen tested about 320,000 compounds, of which about 2,100 (0.66%) were called active. This list was built around the results that the source calls inconclusive (neither active nor inactive); the mix of calls is not that of the screen. Calls follow the shape of the dose curve; as a rule, active = well fitted inhibition curve with a large enough effect in the signal ratio, with a control signal flat (not every such curve was filed as active); inconclusive = small, poorly fitted or top-dose-only effect, or effect the other way, or a change in a side signal; inactive = flat fitted curve, though single readings scatter; the % refers to the signal ratio. Potencies of inconclusive entries are doubtful fits and often do not repeat.
assay: qHTS Assay for Lipid Storage Modulators in Drosophila S3 Cells; conditions: BODIPY lipid droplet fluorescence, 18-24 h, cells fed with added oleic acid; lipid storage change, negative = inhibition: at 46.1 µM (top of the series) unless noted
How it was run: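 Drosophila S3 cells got compounds at several concentrations plus oleic acid (400 uM solution). Laser-scanning cytometry with 488 nm excitation read lipid droplets at 500-530 nm and cells at 575-640 nm. Percent activity was relative to 20 uM Triacsin C.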
% is scaled to controls: 0 for no effect and ±100 for the full control effect; potency is read from the fitted curve at half-maximal effect.

| SMILES | Potency | lipid storage change, negative = inhibition | outcome |
| --- | --- | --- | --- |
| O=C(c1ccc(Cl)c(S(=O)(=O)N2CCCCCC2)c1)N1CCN(c2ccc(O)cc2)CC1 | inconclusive: 6.51 µM [falling, single point] | – | – |
| CCCCOC(=O)CSc1nnc(-c2ccc(Cl)cc2Cl)o1 | – | inconclusive: 39.4% | – |
| O=C(Nc1ccc2[nH]ncc2c1)c1ccccc1 | – | inconclusive: 56.5% | – |
| O=C1CC(N2CCN(c3ncccn3)CC2)C(=O)N1CCc1ccccc1 (stereo not given) | inconclusive: 6.51 µM [cytotoxic, single point] | – | – |
| Cc1ccc(NC(=O)COC(=O)CCc2nc3ccccc3n2-c2ccccc2)c(C)c1 | – | inconclusive: 17.1% | – |
| CC(CNS(=O)(=O)c1ccccc1)Sc1nncn1C (stereo not given) | – | inconclusive: 8.5% | – |
| CSC1=C(C#N)C(CC(C)C)C2=C(CCCC2=O)N1 (stereo not given) | – | inconclusive: 3.67% | – |
| Cc1cc(C)c(S(=O)(=O)N2CCCOC2CNC(=O)C(=O)NCc2ccco2)c(C)c1 (stereo not given) | – | inconclusive: 21.3% | – |
| O=C(CCc1c[nH]c2ccccc12)NCc1ccc2c(c1)OCO2 | – | inconclusive: -12.5% | – |
| Cc1ccc(S(=O)(=O)NCCC(=O)Nc2nnc(C)s2)cc1 | inconclusive: 14.6 µM [activator, single point] | – | – |
| CC1CCC(NS(=O)(=O)c2ccc3c(c2)CC(=O)N3)CC1 (stereo not given) | inconclusive: 29.1 µM [activator, partial curve] | – | – |
| Cc1nc2ccc(C(=O)N/N=C/c3cc([N+](=O)[O-])ccc3O)cc2[nH]1 | – | inconclusive: 2.53% | – |
| COC(=O)c1cc(S(=O)(=O)Nc2ccc(C)c(F)c2)c[nH]1 | inconclusive: 0.82 µM [falling, full curve, poor fit] | – | – |
| CCOc1ccc(Nc2oc(-c3ccccc3Cl)nc2C#N)cc1 | inconclusive: 11.6 µM [activator, partial curve] | – | – |
| CCCOc1ccc(CNC(=O)C2CCN(c3nnc(N4CCCC4=O)s3)CC2)cc1 | – | inconclusive: 47.3% | – |
| O=C(c1ccc2c(c1)OCCO2)N1CCCCC1 | inconclusive: 20.6 µM [falling, single point] | – | – |
| COc1cccc(-c2cc3c(=O)n(-c4ccccc4)c(=S)[nH]c3s2)c1 | – | inconclusive: -28.5% | – |
| Cc1ccc(S(=O)(=O)Nc2ccc3oc(=O)sc3c2)c(C)c1 | – | inconclusive: 9.52% | – |
| O=S(=O)(c1cccc(S(=O)(=O)N2CCCC2)c1)c1cccc(S(=O)(=O)N2CCCC2)c1 | inconclusive: 0.116 µM [falling, full curve, poor fit] | – | – |
| COc1ccc(S(=O)(=O)N2CCN(C(=O)c3c(C)nn(-c4ccccc4)c3Cl)CC2)cc1 | – | inconclusive: 127% | – |
| Cc1cc(SCC(=O)OCC(=O)NCC2CCCO2)c(C)cc1Br (stereo not given) | – | inconclusive: -20.2% | – |
| Cc1ccccc1OCC(=O)OCC(=O)NC1CCCCCC1 | – | – | inactive [at 0.0737 µM] |
| CCN(Cc1ccccc1)S(=O)(=O)c1cn(C)cn1 | – | inconclusive: 51.4% | – |
| CCc1cc(C(=O)N=Nc2c(O)[nH]c3ccc([N+](=O)[O-])cc23)c2ccccc2n1 | – | inconclusive: 48% | – |
| CCOc1ccc(/C=N/NC(=O)c2cc3c(OC)cc(OC)cc3[nH]2)cc1OC | – | inconclusive: 4.06% | – |

Single entries from above.
Value of COc1cccc(-c2cc3c(=O)n(-c4ccccc4)c(=S)[nH]c3s2)c1 under lipid storage change, negative = inhibition: inconclusive: -28.5%
Value of CCCOc1ccc(CNC(=O)C2CCN(c3nnc(N4CCCC4=O)s3)CC2)cc1 under lipid storage change, negative = inhibition: inconclusive: 47.3%
Value of Cc1ccccc1OCC(=O)OCC(=O)NC1CCCCCC1 under outcome: inactive [at 0.0737 µM]

(next part)

| SMILES | Potency | lipid storage change, negative = inhibition | outcome |
| --- | --- | --- | --- |
| Cc1ccc(C(=O)Oc2csc(=S)n2C(=O)c2ccc(C)cc2)cc1 | inconclusive: 0.82 µM [falling, full curve, poor fit] | – | – |
| COc1ccc(NC(=O)c2ccco2)cc1NC(=O)COc1ccccc1[N+](=O)[O-] | inconclusive: 25.9 µM [falling, single point] | – | – |
| Cc1ccc(C(=O)c2sc3c(c2N)c(=O)[nH]c(=O)n3CCc2ccccc2)cc1 | – | inconclusive: 25.2% | – |
| CCCc1nc2ccc(NC(=O)NCCC(=O)OCC)cc2c(=O)n1Cc1cccc(Cl)c1 | – | inconclusive: 18.9% | – |
| CCCN(C(=O)CSCc1c(C)noc1C)c1c(N)n(Cc2ccccc2)c(=O)[nH]c1=O | – | inconclusive: 31.1% | – |
| CCOC(=O)C1(CC2CCCCO2)CCN(S(=O)(=O)c2ccsc2)CC1 (stereo not given) | – | inconclusive: -5.03% | – |
| Cc1cccc(NC(=O)CNC(=O)c2ccc3nc[nH]c3c2)c1C | – | inconclusive | – |
| O=C(O)CCS(=O)(=O)c1cc(Br)cc2c1N(C(=O)C1CC1)CC2 | – | inconclusive: 3.68% | – |
| COc1ccccc1/C=C/C(=O)OCC(=O)Nc1c(F)cccc1F | inconclusive: 0.731 µM [activator, full curve] | – | – |
| O=C1CC[C@@H](CN(Cc2ccccn2)Cc2nc(Cc3ccccc3)no2)N1 | – | inconclusive: 6.28% | – |
| CCCn1c2ccccc2c2nc3ccccc3nc21 | inconclusive: 1.84 µM [activator, full curve] | – | – |
| CC1CCC(NC(=O)c2cc3c(=O)n(C)c4ccccc4c3n2C)CC1 (stereo not given) | – | inconclusive: 6.98% | – |
| c1cncc(-c2nc(NCc3cccs3)c3ccccc3n2)c1 | inconclusive: 0.092 µM [activator, full curve, poor fit] | – | – |
| CCN(CC)c1ccc(C(=O)N/N=C(\C)c2cccnc2)cc1 | inconclusive: 16.4 µM [activator, single point] | – | – |
| N#C/C(=C\C=C\c1ccccc1)C(=O)NCc1ccco1 | – | inconclusive: -30.6% | – |
| C=CCN1C(=O)/C(=C/c2ccc(O)cc2)S/C1=N/c1nccs1 | inconclusive: 0.259 µM [activator, full curve] | – | – |
| CCOC(=O)[C@@H]1[C@H]2COc3cc(OC)ccc3[C@@H]2N2C(=O)N(c3cccc(Cl)c3)C(=O)[C@@]12C | – | inconclusive: -4.12% | – |
| COc1ccc(/C=C/C(=O)c2ccc(C(=O)/C=C/c3ccc(OC)c(OC)c3)cc2)cc1OC | inconclusive: 6.51 µM [rising, single point] | – | – |
| CC1CCCCC1NCC#CCOc1ccc(Cl)cc1 (stereo not given) | – | inconclusive: -34.5% [at 0.00295 µM] | – |
| CCOC(=O)C1(C)NC(c2ccco2)C2C(=O)N(C)C(=O)C21 (stereo not given) | inconclusive: 0.0116 µM [falling, full curve] | – | – |
| Cc1cccc(NC(=O)COn2nnc3ccc(S(C)(=O)=O)cc32)c1 | – | inconclusive: 16.4% | – |
| CCOC(=O)Cc1nn(Cc2nc(-c3ccc(C#N)cc3)cs2)c(=O)c2ccccc12 | – | inconclusive: -34.1% | – |
| Cc1c(Cl)cccc1NC(=O)COC(=O)CCc1nc2ccccc2n1-c1ccccc1 | – | inconclusive: 10.8% | – |
| COc1ccc(C(CNC(=O)C2COc3ccccc3O2)N2CCCC2)cc1 (stereo not given) | inconclusive: 29.1 µM [activator, single point] | – | – |
| O=C(O)CCCNS(=O)(=O)c1ccc(Br)s1 | – | inconclusive: -2.71% | – |

| SMILES | Potency | lipid storage change, negative = inhibition | outcome |
| --- | --- | --- | --- |
| CCOC(=O)C1=C(O)/C(=C/c2ccc(OCC(=O)Nc3ccc(C)cc3)cc2)N=C1C | inconclusive: 29.1 µM [activator, single point] | – | – |
| CC(=O)Nn1cc2c(=O)n(C)c(=O)n(C)c2c1 | – | inconclusive: -3.3% | – |
| OC(CN1CCOCC1)Cn1c2c(c3ccccc31)CCCC2 (stereo not given) | inconclusive: 29.1 µM [activator, single point] | – | – |
| N#CC1=C(N2CCCCC2)c2cc3c(n2C1=O)CCCC3 | inconclusive: 9.2 µM [activator, partial curve] | – | – |
| COc1ccc(C(=O)Nc2cccc(-c3cc4ccccc4oc3=O)c2)cc1[N+](=O)[O-] | – | inconclusive: 25% | – |
| O=C(NCC1CCCO1)c1cnn2c(C(F)F)cc(C3CC3)nc12 (stereo not given) | inconclusive: 4.61 µM [falling, single point] | – | – |
| CCc1ccc(OCC(=O)O/N=C(\N)Cc2ccc([N+](=O)[O-])cc2)cc1 | – | inconclusive: 1.02% | – |
| O=C(CSc1nnc(CNC(=O)c2ccc(F)cc2)o1)NCCc1ccccc1 | inconclusive: 7.31 µM [falling, full curve, poor fit] | – | – |
| CCCCc1cc(=O)oc2cc(OCC(=O)NCC3CCC(C(=O)O)CC3)ccc12 (stereo not given) | – | inconclusive: -42.3% | – |
| Cc1nnc(SCC(=O)Nc2sccc2C#N)s1 | – | inconclusive: 21.5% | – |
| Cc1c(-c2ccccc2)n[nH]c1C(=O)NN | – | inconclusive: 10.7% | – |
| O=C(c1cccc(Cl)c1)N1CCN(C(=O)c2ccco2)CC1 | inconclusive: 0.259 µM [falling, full curve, poor fit] | – | – |
| O=C(COC(=O)Cn1nnc2ccccc21)NC1CCCC1 | inconclusive: 29.1 µM [falling, single point] | – | – |
| COc1cc(C2NC(=O)NC3=C2C(=O)OC3)cc(OC)c1OC (stereo not given) | inconclusive: 4.61 µM [falling, full curve, poor fit] | – | – |
| FC(F)(F)c1cccc(N2CCN(C3CC4CCC3C4)CC2)c1 (stereo not given) | – | inconclusive: 56% | – |
| Cc1c(NC(=O)C2CC=CCC2C(=O)O)c(=O)n(-c2ccccc2)n1C (stereo not given) | – | inconclusive: -28.8% | – |
| CCN1CCN(C(=S)NCCc2ccccc2)CC1 | – | inconclusive: 15.2% | – |
| O=C(NC(N1CCCC1)C(Cl)(Cl)Cl)c1ccccc1 (stereo not given) | – | inconclusive: 16.9% | – |
| CCN(CC)S(=O)(=O)c1cc(NC(=O)C(C)N2CCN(c3ccccn3)CC2)ccc1C (stereo not given) | inconclusive: 0.82 µM [activator, partial curve] | – | – |
| S=C(NCCc1ccccc1)Nc1ccccn1 | – | inconclusive: 24.2% | – |
| CCC(=O)c1ccc(OC(=O)C2CCN(C3=NS(=O)(=O)c4ccccc43)CC2)cc1 | – | inconclusive: -1.48% | – |
| O=[N+]([O-])c1ccc(N2CCN(c3ccc(F)cc3)CC2)cn1 | – | inconclusive: -19.4% | – |
| Cc1nc(NC(=O)C2CC2)sc1C(=O)Nc1ccc(Br)cc1 | – | inconclusive: -66.6% | – |
| C/C(=N\N)c1c(-c2ccccc2)c2cc(C)ccc2[nH]c1=O | – | inconclusive: 0.0506% | – |
| O=C(c1cc2cc(Br)ccc2[nH]1)N1CCc2ccccc21 | inconclusive: 6.51 µM [falling, single point] | – | – |

From PubChem BioAssay AID2685 (National Center for Advancing Translational Sciences (NCATS), 2010)
